Experimental data: PubChem BioAssay AID1259284 (Sanger Institute, 2017)
Here is an unselected part of 794 reagents. In the full data, 16 (2%) are marked active. 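Calls concern knock-down without drug only; drug synergy was judged apart, with scores above 0.15 taken as synergy.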 Not all columns of the deposit are shown. Not stated in the record: the amount of reagent, the time to read-out.

Purpose: 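Kinase genes needed for growth or acting with cancer drugs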 (primary screen)
Cells: SW48 human colorectal cancer cells
Knock-down reagent: siRNA pool against human genes
Conditions: anchor drug BYL719 at 1 µM, cetuximab at 5 µg/ml or trametinib at 10 nM, or DMSO vehicle alone
Measured: 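Viability scaled to non-targeting control pool, robust z-score from controls, and synergy scores for each drug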
Scale: robust z-score, no drug: higher = more cells survive knock-down
Hit rule: 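a knock-down is essential if viability without drug gives a robust z-score under -3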
Calls: active = essential without drug; inactive = no change without drug

Silencing of BUB1B (BUB1 mitotic checkpoint serine/threonine kinase B) resulted in: robust z-score, no drug -1.53; inactive.
Silencing of CALM1 (calmodulin 1) resulted in: robust z-score, no drug 0.426; inactive.
PHKA1 (phosphorylase kinase regulatory subunit alpha 1) scored robust z-score, no drug 0.426; inactive.
PIK3R1 (phosphoinositide-3-kinase regulatory subunit 1) scored robust z-score, no drug 0.426; inactive.
Against PDK4 (pyruvate dehydrogenase kinase 4), the values are robust z-score, no drug 0.426; inactive.
PRKD3 (protein kinase D3) gave robust z-score, no drug 0.426; inactive.
With knock-down of CDKL3 (cyclin dependent kinase like 3) the results were robust z-score, no drug 0.426; inactive.
After knock-down of PFKP (phosphofructokinase, platelet) the results were robust z-score, no drug 0.426; inactive.
CDK14 (cyclin dependent kinase 14) scored robust z-score, no drug 0.426; inactive.
After knock-down of DNMT3A (DNA methyltransferase 3 alpha), the screen gave robust z-score, no drug 0.426; inactive.
Knock-down of CSNK1D (casein kinase 1 delta) resulted in: robust z-score, no drug 0.168; inactive.
For MAGI1, the values are robust z-score, no drug 0.426; inactive.
Depletion of PBK (PDZ binding kinase) gave: robust z-score, no drug 0.118; inactive.
After knock-down of CSNK1A1 (casein kinase 1 alpha 1), the screen gave robust z-score, no drug 0.426; inactive.
After knock-down of IKBKG, the record shows robust z-score, no drug 0.426; inactive.
With knock-down of MAPK4 (mitogen-activated protein kinase 4) the results were robust z-score, no drug 0.197; inactive.
KDR (kinase insert domain receptor) showed robust z-score, no drug 0.426; inactive.
Against RPS6KA5 (ribosomal protein S6 kinase A5), the values are robust z-score, no drug -1.52; inactive.
After knock-down of ALPK3 (alpha kinase 3) the results were robust z-score, no drug 0.426; inactive.
MPP3 (MAGUK p55 scaffold protein 3) showed robust z-score, no drug -2.06; inactive.
For PRKAR1A the deposit lists robust z-score, no drug 0.426; inactive.
After knock-down of MED24 (mediator complex subunit 24), the screen gave robust z-score, no drug 0.426; inactive.
After knock-down of ADK (adenosine kinase) the results were robust z-score, no drug 0.426; inactive.
For STK25 (serine/threonine kinase 25), the values are robust z-score, no drug 0.371; inactive.
Knock-down of SPHK2 (sphingosine kinase 2) gave: robust z-score, no drug 0.426; inactive.
After knock-down of NRBP1 (nuclear receptor binding protein 1), the screen gave robust z-score, no drug 0.426; inactive.
After knock-down of CKS1B (CDC28 protein kinase regulatory subunit 1B) the results were robust z-score, no drug -1; inactive.
Knock-down of BLK (BLK proto-oncogene, Src family tyrosine kinase) came out at: robust z-score, no drug 0.426; inactive.

2 successive entries already listed, quoted:
PHKA1 (phosphorylase kinase regulatory subunit alpha 1) | robust z-score, no drug: 0.426; outcome: inactive
PIK3R1 (phosphoinositide-3-kinase regulatory subunit 1) | robust z-score, no drug: 0.426; outcome: inactive
